Taken from: PubChem BioAssay AID1159617 (Peter MacCallum Cancer Centre, 2016)
In all, the deposit lists 153 reagents; this is a part drawn at random. 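Values are robust z-scores scaled across the full screen; higher values mean larger or longer cells.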 Further read-outs or replicates are left out here. Not given: the time to read-out.

Aim: 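Follow-up of migration screen hits for effects on endothelial cell form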 (tertiary re-screen of migration hits)
Cells: human HMBEC blood microvascular and HDLEC lymphatic endothelial cells
Reagents: siRNA pool against human genes, 40 nM
Measured: 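Actin stained with phalloidin and imaged; area and length measured per cell, averaged across replicates and expressed as robust z-scores over the whole screen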
Reading the numbers: cell area z-score, HMBEC and cell area z-score, HDLEC: higher = larger cells

Against MOB3A (GeneID 126308) [SID313054032] the deposit lists cell area z-score, HMBEC 0.4; cell area z-score, HDLEC 1.08.
After knock-down of CWC22 (GeneID 57703) [SID313054012] the results were cell area z-score, HMBEC -0.49; cell area z-score, HDLEC -0.2.
After knock-down of DBP (GeneID 1628) [SID313053922] the results were cell area z-score, HMBEC -0.16; cell area z-score, HDLEC 0.35.
After knock-down of TNFRSF1B (GeneID 7133) [SID313053958], the record shows cell area z-score, HMBEC -0.02; cell area z-score, HDLEC 1.55.
Silencing of DOT1L (GeneID 84444) [SID313054024] resulted in: cell area z-score, HMBEC -0.14; cell area z-score, HDLEC 0.08.
NDUFA7 (GeneID 4701) [SID313053940] showed cell area z-score, HMBEC -1.31; cell area z-score, HDLEC -1.33.
Depletion of HOXC5 (GeneID 3222) [SID313053931] gave: cell area z-score, HMBEC 1.16; cell area z-score, HDLEC 1.5.
After knock-down of GDF3 (GeneID 9573) [SID313053971], the record shows cell area z-score, HMBEC -0.22; cell area z-score, HDLEC -1.5.
For SMURF2 (GeneID 64750) [SID313054018], the values are cell area z-score, HMBEC 1.1; cell area z-score, HDLEC 1.21.
Against JHY (GeneID 79864) [SID313054023] the deposit lists cell area z-score, HMBEC 0.39; cell area z-score, HDLEC 0.14.
HS3ST1 (GeneID 9957) [SID313053973] showed cell area z-score, HMBEC -0.12; cell area z-score, HDLEC -0.91.
With knock-down of SCN1B (GeneID 6324) [SID313053954] the results were cell area z-score, HMBEC 0.48; cell area z-score, HDLEC 1.57.
CYP1A1 (GeneID 1543) [SID313053921] showed cell area z-score, HMBEC -0.32; cell area z-score, HDLEC -1.03.
TES (GeneID 26136) [SID313053993] showed cell area z-score, HMBEC 2.06; cell area z-score, HDLEC -0.03.
After knock-down of MIEF1 (GeneID 54471) [SID313054003], the screen gave cell area z-score, HMBEC -0.08; cell area z-score, HDLEC -0.33.
With knock-down of LIMK1 (GeneID 3984) [SID313053937], the screen gave cell area z-score, HMBEC -1.24; cell area z-score, HDLEC -0.53.
Silencing of PLPP3 (GeneID 8613) [SID313053964] came out at: cell area z-score, HMBEC -1.25; cell area z-score, HDLEC -1.55.

Looked up above:
Entry of JHY (GeneID 79864) [SID313054023] under “cell area z-score, HDLEC”: 0.14
For “cell area z-score, HDLEC”, TES (GeneID 26136) [SID313053993] shows -0.03

The results go on:
With knock-down of MYL7 (GeneID 58498) [SID313054013], the record shows cell area z-score, HMBEC -0.68; cell area z-score, HDLEC 0.37.
EPOR (GeneID 2057) [SID313053925] gave cell area z-score, HMBEC 2.03; cell area z-score, HDLEC 1.31.
Against CLCN7 (GeneID 1186) [SID313053917] the deposit lists cell area z-score, HMBEC 1.05; cell area z-score, HDLEC 1.78.
Silencing of CSNK1G3 (GeneID 1456) [SID313053920] came out at: cell area z-score, HMBEC 0.4; cell area z-score, HDLEC 0.71.
After knock-down of PLPPR2 (GeneID 64748) [SID313054017] the results were cell area z-score, HMBEC 0.23; cell area z-score, HDLEC 0.73.
For RET (GeneID 5979) [SID313053952], the entry reads cell area z-score, HMBEC -0.32; cell area z-score, HDLEC -0.01.
With knock-down of PSEN2 (GeneID 5664) [SID313053950] the results were cell area z-score, HMBEC 0.17; cell area z-score, HDLEC 0.54.
For TYRO3 (GeneID 7301) [SID313053959] the deposit lists cell area z-score, HMBEC 0.33; cell area z-score, HDLEC -0.25.
For RTKN (GeneID 6242) [SID313053953], the entry reads cell area z-score, HMBEC 0.03; cell area z-score, HDLEC 0.07.
After knock-down of BNIP1 (GeneID 662) [SID313053909] the results were cell area z-score, HMBEC 0.09; cell area z-score, HDLEC -0.24.
Depletion of CHST5 (GeneID 23563) [SID313053989] gave: cell area z-score, HMBEC 0.82; cell area z-score, HDLEC 1.4.
Knock-down of PLCG1 (GeneID 5335) [SID313053945] came out at: cell area z-score, HMBEC -0.05; cell area z-score, HDLEC -1.05.
With knock-down of KATNIP (GeneID 23247) [SID313053986] the results were cell area z-score, HMBEC -0.76; cell area z-score, HDLEC -1.21.
After knock-down of GPR152 (GeneID 390212) [SID313054053], the screen gave cell area z-score, HMBEC 0.08; cell area z-score, HDLEC -0.2.
Against P2RX2 (GeneID 22953) [SID313053985] the deposit lists cell area z-score, HMBEC -1.01; cell area z-score, HDLEC -0.58.
SLC31A2 (GeneID 1318) [SID313053918] scored cell area z-score, HMBEC 0.39; cell area z-score, HDLEC 0.93.
For IL1B (GeneID 3553) [SID313053932] the deposit lists cell area z-score, HMBEC 1.09; cell area z-score, HDLEC -0.12.
EFNA3 (GeneID 1944) [SID313053924] showed cell area z-score, HMBEC -0.44; cell area z-score, HDLEC -0.34.
For LRRC57 (GeneID 255252) [SID313054046], the values are cell area z-score, HMBEC -0.65; cell area z-score, HDLEC 0.56.
LPL (GeneID 4023) [SID313053938] scored cell area z-score, HMBEC 0.14; cell area z-score, HDLEC 0.48.
Depletion of ATRAID (GeneID 51374) [SID313054001] gave: cell area z-score, HMBEC -0.34; cell area z-score, HDLEC 1.38.
Against PRR21 (GeneID 643905) [SID318171902] the deposit lists cell area z-score, HMBEC -1.69; cell area z-score, HDLEC -1.89.
